{"source": "PubChem BioAssay AID743121 | NCATS | 2013", "purpose": "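Genes whose silencing strengthens cell killing by camptothecin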 (primary screen)", "cells": "MDA-MB-231 cells, a human breast cancer line", "reagents": "single siRNA against human genes, 20 nM siRNA (0.8 pmol per well)", "time to read-out": "120 h (drug added 48 h after transfection, read 72 h later)", "conditions": "camptothecin 20 nM (about EC30) for 72 h; vehicle 0.1% DMSO in parallel plates", "detection": "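CellTiter-Glo ATP signal, scaled to control siRNA as percent viability; sensitisation given as log2 of untreated divided by camptothecin-treated viability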", "direction": "log2 vehicle/camptothecin viability: higher = stronger sensitisation to camptothecin", "rule for the call": "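Active genes have an RSA gene-level p-value below 0.001, computed from the ratios of their separate siRNAs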", "note": "This is one part, drawn at random, of about 26,000 reagents. 167 of them (0.63%) count as active. 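Calls are per gene from RSA p-values that are not deposited; an individual active-marked siRNA can sensitise only weakly.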 Entries without a mark were called inactive. Reagents against one gene are numbered here. Not all columns of the deposit are shown."}
{"Gene": "SRPK3 (SRSF protein kinase 3)", "reagent": 1, "log2 vehicle/camptothecin viability": 0.128}
{"Gene": "SRPK3 (SRSF protein kinase 3)", "reagent": 2, "log2 vehicle/camptothecin viability": -0.661}
{"Gene": "SRPK3 (SRSF protein kinase 3)", "reagent": 3, "log2 vehicle/camptothecin viability": 0.191}
{"Gene": "SRPK3 (SRSF protein kinase 3)", "reagent": 4, "log2 vehicle/camptothecin viability": -0.388}
{"Gene": "TIAM1 (TIAM Rac1 associated GEF 1)", "reagent": 1, "log2 vehicle/camptothecin viability": -0.849}
{"Gene": "TIAM1 (TIAM Rac1 associated GEF 1)", "reagent": 2, "log2 vehicle/camptothecin viability": -0.158}
{"Gene": "TIAM1 (TIAM Rac1 associated GEF 1)", "reagent": 3, "log2 vehicle/camptothecin viability": -0.261}
{"Gene": "TIAM1 (TIAM Rac1 associated GEF 1)", "reagent": 4, "log2 vehicle/camptothecin viability": -0.381}
{"Gene": "OMG (oligodendrocyte myelin glycoprotein)", "reagent": 1, "log2 vehicle/camptothecin viability": -0.187}
{"Gene": "OMG (oligodendrocyte myelin glycoprotein)", "reagent": 2, "log2 vehicle/camptothecin viability": -0.173}
{"Gene": "OMG (oligodendrocyte myelin glycoprotein)", "reagent": 3, "log2 vehicle/camptothecin viability": -0.184}
{"Gene": "OMG (oligodendrocyte myelin glycoprotein)", "reagent": 4, "log2 vehicle/camptothecin viability": -0.145}
{"Gene": "GFRA4 (GDNF family receptor alpha 4)", "reagent": 1, "log2 vehicle/camptothecin viability": -0.148}
{"Gene": "GFRA4 (GDNF family receptor alpha 4)", "reagent": 2, "log2 vehicle/camptothecin viability": 0.638}
{"Gene": "GFRA4 (GDNF family receptor alpha 4)", "reagent": 3, "log2 vehicle/camptothecin viability": -0.242}

Reformatted: 2 of the entries above
SRPK3 (SRSF protein kinase 3) #1 → log2 vehicle/camptothecin viability = 0.128
SRPK3 (SRSF protein kinase 3) #2 → log2 vehicle/camptothecin viability = -0.661
